Results as given in the supplement of paper PMC10849652.
The list shows a part of the results.

The chains behind the UniProt entries cited, without tags or fusion partners. Where a name states a change or a piece, a line headed by the entry shows the natural chain unless it says otherwise.
UniProt O43447: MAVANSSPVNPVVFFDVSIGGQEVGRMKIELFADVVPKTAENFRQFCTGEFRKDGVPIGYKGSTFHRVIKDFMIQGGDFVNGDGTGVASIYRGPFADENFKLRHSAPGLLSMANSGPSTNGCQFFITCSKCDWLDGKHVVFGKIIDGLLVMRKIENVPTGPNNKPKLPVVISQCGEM
UniProt Q9HAB8: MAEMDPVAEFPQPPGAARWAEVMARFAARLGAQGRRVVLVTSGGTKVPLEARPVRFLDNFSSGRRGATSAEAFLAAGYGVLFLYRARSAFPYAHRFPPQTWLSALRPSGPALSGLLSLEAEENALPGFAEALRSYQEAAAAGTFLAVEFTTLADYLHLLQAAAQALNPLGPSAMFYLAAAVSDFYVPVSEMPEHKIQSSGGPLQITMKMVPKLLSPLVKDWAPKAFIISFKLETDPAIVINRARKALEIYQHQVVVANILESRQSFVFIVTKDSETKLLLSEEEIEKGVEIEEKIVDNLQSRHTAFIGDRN
UniProt P35813: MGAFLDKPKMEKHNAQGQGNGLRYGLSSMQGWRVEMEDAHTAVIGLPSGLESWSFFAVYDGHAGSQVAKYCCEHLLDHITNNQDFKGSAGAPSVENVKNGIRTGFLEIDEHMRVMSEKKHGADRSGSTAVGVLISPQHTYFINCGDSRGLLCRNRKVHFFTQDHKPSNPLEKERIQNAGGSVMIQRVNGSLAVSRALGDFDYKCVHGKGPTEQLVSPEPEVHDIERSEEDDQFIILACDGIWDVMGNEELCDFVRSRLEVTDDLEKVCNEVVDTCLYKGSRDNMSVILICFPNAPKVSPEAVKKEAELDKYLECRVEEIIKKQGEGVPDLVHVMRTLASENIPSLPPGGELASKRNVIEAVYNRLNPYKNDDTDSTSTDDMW
UniProt Q99575: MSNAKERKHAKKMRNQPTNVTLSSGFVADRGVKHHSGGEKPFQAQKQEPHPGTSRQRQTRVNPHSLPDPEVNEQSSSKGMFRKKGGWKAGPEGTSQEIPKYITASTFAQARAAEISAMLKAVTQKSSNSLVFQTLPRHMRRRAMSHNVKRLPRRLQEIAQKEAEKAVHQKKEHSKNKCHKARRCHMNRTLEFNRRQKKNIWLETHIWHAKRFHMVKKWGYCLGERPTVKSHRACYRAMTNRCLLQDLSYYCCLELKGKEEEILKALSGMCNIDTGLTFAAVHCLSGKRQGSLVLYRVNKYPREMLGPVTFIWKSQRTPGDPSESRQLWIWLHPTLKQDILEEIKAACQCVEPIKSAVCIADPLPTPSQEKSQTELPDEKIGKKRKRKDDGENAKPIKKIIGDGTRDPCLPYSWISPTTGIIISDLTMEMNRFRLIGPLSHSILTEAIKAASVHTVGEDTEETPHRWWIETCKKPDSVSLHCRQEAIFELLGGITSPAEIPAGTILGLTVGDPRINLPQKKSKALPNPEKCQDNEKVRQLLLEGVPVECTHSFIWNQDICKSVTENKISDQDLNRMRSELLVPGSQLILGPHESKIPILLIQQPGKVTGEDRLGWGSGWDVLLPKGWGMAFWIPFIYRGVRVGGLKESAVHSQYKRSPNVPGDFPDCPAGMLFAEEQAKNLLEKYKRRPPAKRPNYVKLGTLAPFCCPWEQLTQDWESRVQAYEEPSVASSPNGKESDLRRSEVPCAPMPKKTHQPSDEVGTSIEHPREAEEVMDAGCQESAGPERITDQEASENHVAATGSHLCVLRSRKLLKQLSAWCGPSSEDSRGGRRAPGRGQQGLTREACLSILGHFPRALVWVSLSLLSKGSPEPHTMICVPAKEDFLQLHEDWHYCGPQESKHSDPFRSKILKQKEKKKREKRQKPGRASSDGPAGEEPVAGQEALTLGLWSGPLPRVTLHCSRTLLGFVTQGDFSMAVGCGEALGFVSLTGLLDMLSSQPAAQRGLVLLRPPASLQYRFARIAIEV
UniProt O75334: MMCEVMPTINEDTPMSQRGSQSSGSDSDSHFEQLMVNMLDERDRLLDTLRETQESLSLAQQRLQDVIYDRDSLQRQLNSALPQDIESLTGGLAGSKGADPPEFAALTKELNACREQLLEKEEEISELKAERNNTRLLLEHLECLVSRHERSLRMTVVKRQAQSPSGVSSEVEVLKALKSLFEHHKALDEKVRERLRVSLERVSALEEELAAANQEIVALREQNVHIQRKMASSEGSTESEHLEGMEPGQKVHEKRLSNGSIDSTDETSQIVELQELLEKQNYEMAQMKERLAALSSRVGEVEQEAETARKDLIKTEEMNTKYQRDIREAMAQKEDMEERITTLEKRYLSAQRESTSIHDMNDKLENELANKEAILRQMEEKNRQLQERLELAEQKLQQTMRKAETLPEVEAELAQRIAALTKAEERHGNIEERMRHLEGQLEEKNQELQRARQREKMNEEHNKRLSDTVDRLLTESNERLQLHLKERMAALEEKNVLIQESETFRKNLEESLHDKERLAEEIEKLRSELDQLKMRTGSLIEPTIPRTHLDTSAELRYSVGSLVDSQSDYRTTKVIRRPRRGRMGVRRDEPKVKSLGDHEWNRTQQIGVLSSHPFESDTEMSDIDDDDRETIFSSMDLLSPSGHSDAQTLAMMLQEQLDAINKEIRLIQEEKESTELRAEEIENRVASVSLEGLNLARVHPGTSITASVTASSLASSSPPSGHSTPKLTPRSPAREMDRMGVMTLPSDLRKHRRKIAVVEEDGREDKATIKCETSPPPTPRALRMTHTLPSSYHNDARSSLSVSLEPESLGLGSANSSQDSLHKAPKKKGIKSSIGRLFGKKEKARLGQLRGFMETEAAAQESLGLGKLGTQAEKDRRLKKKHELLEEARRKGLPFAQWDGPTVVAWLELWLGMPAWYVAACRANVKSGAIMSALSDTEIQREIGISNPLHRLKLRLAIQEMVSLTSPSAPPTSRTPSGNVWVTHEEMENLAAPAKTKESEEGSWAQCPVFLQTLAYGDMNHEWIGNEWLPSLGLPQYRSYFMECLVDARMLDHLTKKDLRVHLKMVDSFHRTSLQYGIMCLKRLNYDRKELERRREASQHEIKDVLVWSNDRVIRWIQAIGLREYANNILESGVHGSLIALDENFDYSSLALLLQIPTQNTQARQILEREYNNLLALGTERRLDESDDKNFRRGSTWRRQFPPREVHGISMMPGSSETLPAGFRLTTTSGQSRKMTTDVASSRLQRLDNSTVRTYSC
UniProt Q6PFW1: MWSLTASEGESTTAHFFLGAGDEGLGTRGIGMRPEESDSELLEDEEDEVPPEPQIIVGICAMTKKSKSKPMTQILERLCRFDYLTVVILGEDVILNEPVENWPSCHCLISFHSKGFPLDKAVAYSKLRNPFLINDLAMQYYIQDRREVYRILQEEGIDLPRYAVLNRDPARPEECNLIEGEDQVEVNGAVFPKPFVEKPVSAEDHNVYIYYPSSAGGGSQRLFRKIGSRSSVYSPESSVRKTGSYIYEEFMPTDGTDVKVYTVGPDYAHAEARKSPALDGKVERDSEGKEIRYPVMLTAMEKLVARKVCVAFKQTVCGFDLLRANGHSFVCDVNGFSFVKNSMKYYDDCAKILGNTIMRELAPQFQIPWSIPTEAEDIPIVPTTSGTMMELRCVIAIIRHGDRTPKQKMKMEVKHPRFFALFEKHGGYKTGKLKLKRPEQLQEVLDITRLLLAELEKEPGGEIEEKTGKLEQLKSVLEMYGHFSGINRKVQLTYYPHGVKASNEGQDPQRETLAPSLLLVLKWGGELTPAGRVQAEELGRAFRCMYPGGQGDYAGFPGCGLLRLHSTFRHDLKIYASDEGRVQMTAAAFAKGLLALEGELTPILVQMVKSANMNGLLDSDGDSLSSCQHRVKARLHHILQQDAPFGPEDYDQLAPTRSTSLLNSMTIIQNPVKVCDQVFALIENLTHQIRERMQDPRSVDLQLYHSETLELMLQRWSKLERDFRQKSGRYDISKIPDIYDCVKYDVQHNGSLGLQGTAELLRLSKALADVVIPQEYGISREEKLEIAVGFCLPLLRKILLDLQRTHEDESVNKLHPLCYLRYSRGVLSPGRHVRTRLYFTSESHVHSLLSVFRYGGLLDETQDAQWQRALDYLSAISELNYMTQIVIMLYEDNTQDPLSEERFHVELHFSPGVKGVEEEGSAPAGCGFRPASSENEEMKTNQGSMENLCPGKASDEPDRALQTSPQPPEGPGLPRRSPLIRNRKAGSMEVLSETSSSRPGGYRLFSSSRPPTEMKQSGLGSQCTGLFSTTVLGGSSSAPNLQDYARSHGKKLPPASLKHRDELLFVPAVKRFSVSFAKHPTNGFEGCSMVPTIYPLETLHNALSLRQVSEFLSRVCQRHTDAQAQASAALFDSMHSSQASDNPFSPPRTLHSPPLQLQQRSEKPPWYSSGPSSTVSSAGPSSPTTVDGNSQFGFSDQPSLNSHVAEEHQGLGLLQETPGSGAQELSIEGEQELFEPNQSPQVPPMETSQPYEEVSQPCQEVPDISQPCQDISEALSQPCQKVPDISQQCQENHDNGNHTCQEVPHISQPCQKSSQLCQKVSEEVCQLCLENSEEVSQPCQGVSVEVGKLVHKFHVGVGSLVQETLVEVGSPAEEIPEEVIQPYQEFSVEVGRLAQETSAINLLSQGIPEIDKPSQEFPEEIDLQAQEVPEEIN
UniProt O15162: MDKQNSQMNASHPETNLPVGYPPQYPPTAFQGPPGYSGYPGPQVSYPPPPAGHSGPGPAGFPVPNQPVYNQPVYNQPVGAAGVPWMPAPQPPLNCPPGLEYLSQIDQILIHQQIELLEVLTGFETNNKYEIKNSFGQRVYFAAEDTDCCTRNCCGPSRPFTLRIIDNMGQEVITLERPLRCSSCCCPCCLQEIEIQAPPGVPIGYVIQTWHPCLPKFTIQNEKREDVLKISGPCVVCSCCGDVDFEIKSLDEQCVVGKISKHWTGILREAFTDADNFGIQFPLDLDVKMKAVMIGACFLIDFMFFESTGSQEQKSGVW
UniProt Q96CD2: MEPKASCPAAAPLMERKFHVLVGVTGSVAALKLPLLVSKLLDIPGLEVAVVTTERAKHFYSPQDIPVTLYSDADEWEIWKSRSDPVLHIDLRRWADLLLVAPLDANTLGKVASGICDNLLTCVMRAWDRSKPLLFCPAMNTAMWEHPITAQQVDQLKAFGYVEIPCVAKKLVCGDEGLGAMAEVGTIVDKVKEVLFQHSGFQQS
UniProt P13797: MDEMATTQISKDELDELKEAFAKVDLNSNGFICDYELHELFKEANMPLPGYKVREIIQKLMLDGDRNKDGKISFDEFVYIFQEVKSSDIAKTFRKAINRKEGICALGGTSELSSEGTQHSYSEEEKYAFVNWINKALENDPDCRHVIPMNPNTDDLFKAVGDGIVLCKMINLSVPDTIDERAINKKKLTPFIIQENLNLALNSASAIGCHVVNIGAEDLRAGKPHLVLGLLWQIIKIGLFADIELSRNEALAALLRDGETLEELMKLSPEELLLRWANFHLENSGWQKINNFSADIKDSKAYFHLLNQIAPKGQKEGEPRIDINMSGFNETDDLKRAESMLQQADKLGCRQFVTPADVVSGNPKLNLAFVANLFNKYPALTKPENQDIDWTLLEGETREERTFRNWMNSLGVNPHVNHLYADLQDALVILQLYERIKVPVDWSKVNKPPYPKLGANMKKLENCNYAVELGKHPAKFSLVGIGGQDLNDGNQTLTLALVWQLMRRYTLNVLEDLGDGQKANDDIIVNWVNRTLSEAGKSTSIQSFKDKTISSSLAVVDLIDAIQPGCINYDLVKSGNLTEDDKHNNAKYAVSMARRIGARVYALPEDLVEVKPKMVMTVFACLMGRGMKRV
UniProt Q02809: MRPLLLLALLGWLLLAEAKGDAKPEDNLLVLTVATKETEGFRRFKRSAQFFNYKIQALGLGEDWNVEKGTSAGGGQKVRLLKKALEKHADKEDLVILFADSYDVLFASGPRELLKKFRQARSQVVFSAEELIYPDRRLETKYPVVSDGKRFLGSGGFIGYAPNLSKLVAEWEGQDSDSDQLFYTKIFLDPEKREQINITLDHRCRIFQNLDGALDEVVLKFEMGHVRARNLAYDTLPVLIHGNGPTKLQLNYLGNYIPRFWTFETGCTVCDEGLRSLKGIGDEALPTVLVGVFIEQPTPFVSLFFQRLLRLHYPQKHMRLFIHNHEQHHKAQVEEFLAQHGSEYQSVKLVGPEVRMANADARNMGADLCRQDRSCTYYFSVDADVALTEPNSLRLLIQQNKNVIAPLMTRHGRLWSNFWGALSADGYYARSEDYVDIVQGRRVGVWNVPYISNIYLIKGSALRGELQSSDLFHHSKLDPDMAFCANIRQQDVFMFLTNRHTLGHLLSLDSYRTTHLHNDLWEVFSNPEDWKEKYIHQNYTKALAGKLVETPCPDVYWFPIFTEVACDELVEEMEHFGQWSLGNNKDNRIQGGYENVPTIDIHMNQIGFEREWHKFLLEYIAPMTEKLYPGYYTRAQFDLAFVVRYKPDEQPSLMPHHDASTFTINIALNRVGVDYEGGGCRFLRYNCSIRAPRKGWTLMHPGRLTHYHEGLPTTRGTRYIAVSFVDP
UniProt Q9Y2Y1: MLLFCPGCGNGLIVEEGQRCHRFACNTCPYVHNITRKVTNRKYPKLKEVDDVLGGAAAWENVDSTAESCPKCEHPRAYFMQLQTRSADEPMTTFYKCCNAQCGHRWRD

Compound: CC1=NC(=CC=C1)C2=C(N=C(N2)C(C)(C)C)C3=CC4=NC=CN=C4C=C3
Experiment: log2 fold change, soluble protein after heating vs DMSO (PISA); higher = thermal stabilisation; K562 cells, 10 uM, 30 min; active = over 0.2 and 3.5 SD of the protein, either way, in both replicates (recomputed)
Method in brief: (§1)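 K562 cells at 2×10^6 cells/mL were treated for 30 min with 10 μM compound, and aliquots were heated for 3 min over 48°C-58°C before pooling. Extraction used PBS with 0.5% NP-40 at 4°C, and soluble protein was the supernatant after 21,000xg for 90 min, measured by TMTpro 16plex LC-MS/MS with channel sums equalised. Thermal stability values, relative to control samples and from duplicates, are log2 fold changes.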

Q: How did the log2 fold change turn out when POLR2M (UniProt P0CAP2) was run?
A: The log2 fold change was inactive: 0.

Q: Which log2 fold change does the source give for POLDIP3 (UniProt Q9BY77) here?
A: The log2 fold change was inactive: 0.004.

Q: PPIH (UniProt O43447) was tested. Which log2 fold change did it give?
A: Its log2 fold change is inactive: 0.077.

Q: Which log2 fold change does the source give for PPCS (UniProt Q9HAB8) here?
A: The log2 fold change was inactive: 0.

Q: With PPM1A isoform 3 (UniProt P35813) as the target, how does the log2 fold change read?
A: The log2 fold change was inactive: -0.035.

Q: POLR3B (UniProt Q9NW08) was tested. Which log2 fold change did it give?
A: Its log2 fold change is inactive: 0.022.

Q: Which log2 fold change does the source give for POLE3 (UniProt Q9NRF9) here?
A: The log2 fold change was inactive: -0.014.

Q: How did the log2 fold change turn out when PPA1 (UniProt Q15181) was run?
A: The log2 fold change was inactive: 0.046.

Q: With POLD3 (UniProt Q15054) as the target, how does the log2 fold change read?
A: Its log2 fold change is inactive: 0.007.

Q: For PPIL4 (UniProt Q8WUA2), which log2 fold change is on record?
A: Its log2 fold change is inactive: -0.007.

Q: For POGLUT2 (UniProt Q6UW63), which log2 fold change is on record?
A: Its log2 fold change is inactive: -0.066.

Q: Which log2 fold change does the source give for POLA1 (UniProt P09884) here?
A: Its log2 fold change is inactive: 0.052.

Q: How did the log2 fold change turn out when POP1 (UniProt Q99575) was run?
A: The log2 fold change was inactive: -0.02.

Q: POLR1A (UniProt O95602) was tested. Which log2 fold change did it give?
A: The log2 fold change was inactive: -0.185.

Q: Which log2 fold change does the source give for PPFIA2 (UniProt O75334) here?
A: Its log2 fold change is inactive: -0.04.

Q: Which log2 fold change does the source give for PPFIA1 (UniProt Q13136) here?
A: Its log2 fold change is inactive: -0.052.

Q: Which log2 fold change does the source give for POLR3A (UniProt O14802) here?
A: The log2 fold change was inactive: -0.007.

Q: How did the log2 fold change turn out when PMPCA (UniProt Q10713) was run?
A: Its log2 fold change is inactive: 0.006.

Q: With POLR3G (UniProt O15318) as the target, how does the log2 fold change read?
A: Its log2 fold change is inactive: -0.053.

Q: With PLIN3 (UniProt O60664) as the target, how does the log2 fold change read?
A: Its log2 fold change is inactive: 0.052.

Q: POMP (UniProt Q9Y244) was tested. Which log2 fold change did it give?
A: Its log2 fold change is inactive: 0.076.

Q: PPIP5K1 (UniProt Q6PFW1) was tested. Which log2 fold change did it give?
A: Its log2 fold change is inactive: 0.003.

Q: For PLSCR1 (UniProt O15162), which log2 fold change is on record?
A: The log2 fold change was inactive: -0.002.

Q: How did the log2 fold change turn out when PPCDC (UniProt Q96CD2) was run?
A: The log2 fold change was inactive: 0.025.

Q: How did the log2 fold change turn out when PMM2 (UniProt O15305) was run?
A: The log2 fold change was inactive: -0.009.

Q: How did the log2 fold change turn out when PLS3 (UniProt P13797) was run?
A: The log2 fold change was inactive: -0.038.

Q: Which log2 fold change does the source give for POTEF (UniProt A5A3E0) here?
A: The log2 fold change was inactive: 0.

Q: With PLOD1 isoform 2 (UniProt Q02809) as the target, how does the log2 fold change read?
A: The log2 fold change was inactive: -0.11.

Q: For POLR3K (UniProt Q9Y2Y1), which log2 fold change is on record?
A: Its log2 fold change is inactive: -0.014.

Q: How did the log2 fold change turn out when PNPLA8 (UniProt Q9NP80) was run?
A: The log2 fold change was inactive: -0.027.

Q: With POLR2B (UniProt P30876) as the target, how does the log2 fold change read?
A: Its log2 fold change is inactive: 0.016.

Q: For PPIL1 (UniProt Q9Y3C6), which log2 fold change is on record?
A: The log2 fold change was inactive: -0.024.

Compound: CCCCN(Cc1ccc(C(=O)NO)cc1)C(=O)Nc1ccccc1 [Nexturastat A]
Experiment: as above
Method in brief: as §1

Q: Which log2 fold change does the source give for POLR2M (UniProt P0CAP2) here?
A: The log2 fold change was inactive: -0.019.

Q: With POLDIP3 (UniProt Q9BY77) as the target, how does the log2 fold change read?
A: The log2 fold change was inactive: -0.065.

Q: PPIH (UniProt O43447) was tested. Which log2 fold change did it give?
A: The log2 fold change was inactive: 0.

Q: For PPCS (UniProt Q9HAB8), which log2 fold change is on record?
A: Its log2 fold change is inactive: -0.077.

Q: Which log2 fold change does the source give for PPM1A isoform 3 (UniProt P35813) here?
A: Its log2 fold change is inactive: -0.019.

Q: With POLR3B (UniProt Q9NW08) as the target, how does the log2 fold change read?
A: The log2 fold change was inactive: 0.026.

Q: POLE3 (UniProt Q9NRF9) was tested. Which log2 fold change did it give?
A: The log2 fold change was inactive: -0.05.

Q: With PPA1 (UniProt Q15181) as the target, how does the log2 fold change read?
A: The log2 fold change was inactive: -0.081.

Q: How did the log2 fold change turn out when POLD3 (UniProt Q15054) was run?
A: The log2 fold change was inactive: -0.115.

Q: Which log2 fold change does the source give for PPIL4 (UniProt Q8WUA2) here?
A: Its log2 fold change is inactive: 0.145.

Q: Which log2 fold change does the source give for POGLUT2 (UniProt Q6UW63) here?
A: The log2 fold change was inactive: 0.133.

Q: POLA1 (UniProt P09884) was tested. Which log2 fold change did it give?
A: Its log2 fold change is inactive: -0.064.

Q: With POP1 (UniProt Q99575) as the target, how does the log2 fold change read?
A: The log2 fold change was inactive: -0.011.

Q: For POLR1A (UniProt O95602), which log2 fold change is on record?
A: Its log2 fold change is active: 0.489.

Q: For PPFIA2 (UniProt O75334), which log2 fold change is on record?
A: Its log2 fold change is inactive: 0.058.

Q: For PPFIA1 (UniProt Q13136), which log2 fold change is on record?
A: The log2 fold change was inactive: -0.012.

Q: For POLR3A (UniProt O14802), which log2 fold change is on record?
A: Its log2 fold change is inactive: 0.183.

Q: Which log2 fold change does the source give for PMPCA (UniProt Q10713) here?
A: The log2 fold change was inactive: -0.102.

Q: POLR3G (UniProt O15318) was tested. Which log2 fold change did it give?
A: The log2 fold change was inactive: 0.012.

Q: How did the log2 fold change turn out when PLIN3 (UniProt O60664) was run?
A: Its log2 fold change is inactive: -0.128.

Q: POMP (UniProt Q9Y244) was tested. Which log2 fold change did it give?
A: The log2 fold change was inactive: 0.145.

Q: With PPIP5K1 (UniProt Q6PFW1) as the target, how does the log2 fold change read?
A: The log2 fold change was inactive: -0.138.

Q: PLSCR1 (UniProt O15162) was tested. Which log2 fold change did it give?
A: The log2 fold change was inactive: 0.008.

Q: Which log2 fold change does the source give for PPCDC (UniProt Q96CD2) here?
A: The log2 fold change was inactive: 0.087.

Q: How did the log2 fold change turn out when PMM2 (UniProt O15305) was run?
A: The log2 fold change was inactive: -0.124.

Q: How did the log2 fold change turn out when PLS3 (UniProt P13797) was run?
A: The log2 fold change was inactive: -0.054.

Q: POTEF (UniProt A5A3E0) was tested. Which log2 fold change did it give?
A: Its log2 fold change is inactive: -0.008.

Q: How did the log2 fold change turn out when PLOD1 isoform 2 (UniProt Q02809) was run?
A: Its log2 fold change is inactive: 0.116.

Q: How did the log2 fold change turn out when POLR3K (UniProt Q9Y2Y1) was run?
A: Its log2 fold change is inactive: -0.04.

Q: PNPLA8 (UniProt Q9NP80) was tested. Which log2 fold change did it give?
A: The log2 fold change was inactive: 0.041.

Q: For POLR2B (UniProt P30876), which log2 fold change is on record?
A: Its log2 fold change is inactive: 0.054.

Q: PPIL1 (UniProt Q9Y3C6) was tested. Which log2 fold change did it give?
A: The log2 fold change was inactive: 0.025.

Compound: CCCS(=O)(=O)Nc1ccc(F)c(C(=O)c2c[nH]c3ncc(-c4ccc(Cl)cc4)cc23)c1F [vemurafenib]
Experiment: as above
Method in brief: as §1

Q: For POLR2M (UniProt P0CAP2), which log2 fold change is on record?
A: Its log2 fold change is inactive: 0.021.

Q: Which log2 fold change does the source give for POLDIP3 (UniProt Q9BY77) here?
A: The log2 fold change was inactive: -0.024.

Q: How did the log2 fold change turn out when PPIH (UniProt O43447) was run?
A: The log2 fold change was inactive: -0.016.

Q: Which log2 fold change does the source give for PPCS (UniProt Q9HAB8) here?
A: The log2 fold change was inactive: 0.043.

Q: How did the log2 fold change turn out when PPM1A isoform 3 (UniProt P35813) was run?
A: Its log2 fold change is inactive: 0.007.

Q: POLR3B (UniProt Q9NW08) was tested. Which log2 fold change did it give?
A: The log2 fold change was inactive: 0.003.

Q: With POLE3 (UniProt Q9NRF9) as the target, how does the log2 fold change read?
A: Its log2 fold change is inactive: -0.003.

Q: With PPA1 (UniProt Q15181) as the target, how does the log2 fold change read?
A: The log2 fold change was inactive: 0.001.

Q: How did the log2 fold change turn out when POLD3 (UniProt Q15054) was run?
A: The log2 fold change was inactive: 0.082.

Q: PPIL4 (UniProt Q8WUA2) was tested. Which log2 fold change did it give?
A: Its log2 fold change is inactive: 0.001.

Q: POGLUT2 (UniProt Q6UW63) was tested. Which log2 fold change did it give?
A: Its log2 fold change is inactive: -0.098.

Q: For POLA1 (UniProt P09884), which log2 fold change is on record?
A: The log2 fold change was inactive: 0.064.

Q: Which log2 fold change does the source give for POP1 (UniProt Q99575) here?
A: Its log2 fold change is inactive: -0.004.

Q: POLR1A (UniProt O95602) was tested. Which log2 fold change did it give?
A: The log2 fold change was inactive: 0.052.

Q: PPFIA2 (UniProt O75334) was tested. Which log2 fold change did it give?
A: Its log2 fold change is inactive: 0.009.

Q: For PPFIA1 (UniProt Q13136), which log2 fold change is on record?
A: The log2 fold change was inactive: -0.031.

Q: Which log2 fold change does the source give for POLR3A (UniProt O14802) here?
A: The log2 fold change was inactive: 0.087.

Q: For PMPCA (UniProt Q10713), which log2 fold change is on record?
A: The log2 fold change was inactive: 0.025.

Q: POLR3G (UniProt O15318) was tested. Which log2 fold change did it give?
A: The log2 fold change was inactive: -0.016.

Q: For PLIN3 (UniProt O60664), which log2 fold change is on record?
A: The log2 fold change was inactive: -0.001.

Q: How did the log2 fold change turn out when POMP (UniProt Q9Y244) was run?
A: The log2 fold change was inactive: -0.023.

Q: Which log2 fold change does the source give for PPIP5K1 (UniProt Q6PFW1) here?
A: The log2 fold change was inactive: -0.007.

Q: With PLSCR1 (UniProt O15162) as the target, how does the log2 fold change read?
A: The log2 fold change was inactive: -0.05.

Q: PPCDC (UniProt Q96CD2) was tested. Which log2 fold change did it give?
A: The log2 fold change was inactive: 0.002.

Q: For PMM2 (UniProt O15305), which log2 fold change is on record?
A: The log2 fold change was inactive: -0.04.

Q: PLS3 (UniProt P13797) was tested. Which log2 fold change did it give?
A: The log2 fold change was inactive: -0.011.

Q: Which log2 fold change does the source give for POTEF (UniProt A5A3E0) here?
A: The log2 fold change was inactive: -0.046.

Q: PLOD1 isoform 2 (UniProt Q02809) was tested. Which log2 fold change did it give?
A: The log2 fold change was inactive: -0.034.

Q: POLR3K (UniProt Q9Y2Y1) was tested. Which log2 fold change did it give?
A: The log2 fold change was inactive: -0.067.

Q: Which log2 fold change does the source give for PNPLA8 (UniProt Q9NP80) here?
A: Its log2 fold change is inactive: -0.002.

Q: POLR2B (UniProt P30876) was tested. Which log2 fold change did it give?
A: Its log2 fold change is inactive: 0.006.

Q: Which log2 fold change does the source give for PPIL1 (UniProt Q9Y3C6) here?
A: Its log2 fold change is inactive: -0.045.
